# Results of single-concentration screens

From ChEMBL document CHEMBL3988442, “University of Dundee, Small-Polar-MMV Screening Library” (2021).

Results are given as percent effect. How 0% and 100% were set is not recorded. Most values in the screen are low, and negative values occur. The compounds are a random part of those screened. Two or more numbers in one place are separate tests of the same structure; such repeats can differ widely.

Mtb cholesterol medium: 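Growth of Mycobacterium tuberculosis over 4 days (cholesterol / DPPC medium with tyloxapol); the read-out is not stated. Tested at 50 µM. Direction is inferred from retests: higher values go with more growth inhibition. Size under these conditions: about 69,000 compounds, about 370 of them at 50% or above in at least one test.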
Mtb glucose medium: 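Whole-cell growth test on Mycobacterium tuberculosis, read after 3 days in glucose-containing 7H9 medium; the read-out is not stated. Tested at 50 µM. The record gives no direction; compounds that gave an IC50 in retests scored well above the rest, so higher reads as more growth inhibition. Of about 69,000 compounds tested this way, about 760 (1.1%) reached 50% or more in at least one test.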

With COc1ccccc1CNc1c(N2CCN(C(C)=O)CC2)c(=O)c1=O the screen gave Mtb cholesterol medium: -35.17%; Mtb glucose medium: 0.02537% and -6.713%. COc1ccc(C2Nc3ccccc3NC3=C2C(=O)NC3)cc1OC (centres undefined) gave Mtb cholesterol medium: 2.125%; Mtb glucose medium: -5.072%. For CNC(=O)c1cc2c(nc1NC(C)C)CCN(C(=O)NC(C)C)CC2 the result was Mtb cholesterol medium: 1.382%; Mtb glucose medium: 4.848%. Cc1ccc2[nH]c(CN(C)c3cc(CCN)nc(C)n3)nc2c1 gave Mtb cholesterol medium: 4.484%; Mtb glucose medium: 24.8%. Cc1nc2c(c(N(C)CC3Cc4ccccc4CN3C)n1)CCNCC2 (centres undefined) gave Mtb cholesterol medium: 10.78%; Mtb glucose medium: 30.66%. With COc1cc(C(=O)N2CCCC2c2noc(C(C)C)n2)on1 (centres undefined) the screen gave Mtb cholesterol medium: 5.457%; Mtb glucose medium: -1.465%. For CN(Cc1ccc(F)cc1)[C@@H]1CN(S(=O)(=O)N(C)C)C[C@H]1O the result was Mtb cholesterol medium: -2.307% and 4.477%; Mtb glucose medium: -12.46%.

For O=S(=O)(c1ccccc1)N1CCCCC1c1cc[nH]n1 (centres undefined) the result was Mtb cholesterol medium: -5.929%; Mtb glucose medium: -13.66%. Cc1ccccc1-n1c(O)cc(C)c(C#N)c1=O read Mtb cholesterol medium: -3.188%; Mtb glucose medium: -23.85%. CCN(CC)C(C(=O)Nc1ccc2c(c1)CCC(=O)N2)c1ccccc1 (centres undefined) read Mtb cholesterol medium: -4.923%; Mtb glucose medium: 0.1485%. Result for Cc1nc(C2CCCN2Cc2ncc(C(C)C)o2)no1 (centres undefined) was Mtb cholesterol medium: -25.66%; Mtb glucose medium: -45.39%. With [H][C@]12CCCCN1CCC[C@@]2(O)CNCCOc1ccccc1 the screen gave Mtb cholesterol medium: -13.01%; Mtb glucose medium: -19.66% and -0.1695%. Result for Cc1c(C(N)=O)sc2nc(C(F)(F)F)ccc12 was Mtb cholesterol medium: 11.8%; Mtb glucose medium: 9.524%. O=S1(=O)NCC2(CCN(Cc3ccc(Cl)s3)C2)Oc2ncccc21 (centres undefined) read Mtb cholesterol medium: -31.11%; Mtb glucose medium: -20.83%.

COc1cc(CNCCn2ccnc2)cc2c1OCO2.Cl read Mtb cholesterol medium: -19.79%; Mtb glucose medium: -21.62%. For CC(=O)NCC(=O)N1CCC2(CC1)NC(=O)CC2c1cnn(C)c1 (centres undefined) the result was Mtb cholesterol medium: -15.91%; Mtb glucose medium: 12.08%. For CNC(=O)C1(C)CN(c2nc(C)cc(C)n2)CCO1 (centres undefined) the result was Mtb cholesterol medium: 10.31%; Mtb glucose medium: -9.702%. CCC(CO)N(C/C(C)=C/c1ccco1)Cc1ccccn1 (centres undefined) read Mtb cholesterol medium: -0.9765%; Mtb glucose medium: 10.63%. With COCCN1CCc2ncnc(OC(C)C)c2CC1.O=C(O)C(F)(F)F the screen gave Mtb cholesterol medium: -14.84%; Mtb glucose medium: -30.94%. With O=C1CC2(CCN(c3nccc(-c4cc(C(=O)O)ccn4)n3)CC2)CN1 the screen gave Mtb cholesterol medium: -0.5277%; Mtb glucose medium: -27.57%. For COCC(=O)NC1CC2(CCN(Cc3ccco3)CC2)c2ccccc21.O=C(O)C(F)(F)F (centres undefined) the result was Mtb cholesterol medium: -9.403%; Mtb glucose medium: -14.41%.

O=C(O)C(F)(F)F.O=C(O)C(F)(F)F.c1cnc(N2CCCC3(CN(CC4CCOCC4)CCO3)C2)cn1 (centres undefined) gave Mtb cholesterol medium: -3.495%; Mtb glucose medium: 5.947% and 10.01%. With Cc1nn(C)cc1NC(=O)CN1CCN(C2CCCC2)C(=O)C1 the screen gave Mtb cholesterol medium: -9.284% and -14.17%; Mtb glucose medium: -7.629%. Cc1ocnc1C(=O)N1CCN(CCOc2ccccc2)CC1 gave Mtb cholesterol medium: 1.632%; Mtb glucose medium: -0.3035% and -0.367%. Result for Cc1n[nH]c(C2CN(C(=O)c3cc(C)sc3C)CCO2)n1 (centres undefined) was Mtb cholesterol medium: 10.18%; Mtb glucose medium: 19.86%. For CCCc1nnsc1C(=O)NCC(O)c1ccoc1 (centres undefined) the result was Mtb cholesterol medium: 5.135%; Mtb glucose medium: -31.05% and 4.911%. With Cc1nn(C)c(N2CCCN(C)CC2)c1CNC(=O)CCC(C)C the screen gave Mtb cholesterol medium: 4.799%; Mtb glucose medium: 9.18%. CCOC(CC)C(=O)NCc1ccnc(Oc2ccc(F)cc2)c1 (centres undefined) gave Mtb cholesterol medium: 3.574%; Mtb glucose medium: -7.3%.

For COc1ccc(CNC(=O)NCC(=O)NC2CC2)c(C(F)(F)F)c1 the result was Mtb cholesterol medium: -29.72%; Mtb glucose medium: -4.547%. For Cc1cnn(C2CN(CC(O)c3ccc4c(c3)OCCO4)C2)c1 (centres undefined) the result was Mtb cholesterol medium: 9.187%; Mtb glucose medium: -30.4%. With CCS(=O)(=O)Nc1ccn(Cc2c(F)cccc2Cl)n1 the screen gave Mtb cholesterol medium: -0.8114%; Mtb glucose medium: 5.457%. CC(c1cccc(O)c1)N(C)S(=O)(=O)c1cccnc1 (centres undefined) read Mtb cholesterol medium: -12.13%; Mtb glucose medium: -9.751%. Result for CN1CCN([C@@H]2CN(C(=O)c3cc4ccc(F)cc4[nH]3)C[C@H]2O)CC1 was Mtb cholesterol medium: 5.209% and 18.23%; Mtb glucose medium: 13.19%. For Cn1cc(N2CCN(c3ccc(C#N)c(Cl)c3)CC2=O)cn1 the result was Mtb cholesterol medium: 20.5%; Mtb glucose medium: 3.609% and 5.124%. With CC(C)Oc1ncccc1CNC(=O)N1CCC(n2cccc2)CC1 the screen gave Mtb cholesterol medium: 4.278%; Mtb glucose medium: -56.09% and -2.837%.

For Cc1nccnc1N1Cc2cnc(CC(C)C)nc2C1 the result was Mtb cholesterol medium: -7.291%; Mtb glucose medium: -35.46% and 2.142%. With CN(Cc1noc(C2CC2)n1)C1CCN(CC(=O)N2CCOCC2)C1 (centres undefined) the screen gave Mtb cholesterol medium: -12.5%; Mtb glucose medium: -31.61%. For CCCc1cc(C(=O)N(C)Cc2cccc3cnccc23)n(C)n1 the result was Mtb cholesterol medium: -2.106% and -3.339%; Mtb glucose medium: 6.428%. Result for COc1ccc(CC(=O)N2CCN(Cc3ccco3)C[C@@H]2C)cc1 was Mtb cholesterol medium: 3.14% and 5.776%; Mtb glucose medium: 0.5046%. With Cc1nnsc1CN1CC[C@@](O)(C2CCC2)[C@H](C)C1 the screen gave Mtb cholesterol medium: 6.171%; Mtb glucose medium: 4.293% and -14.33%. For COC(=O)c1cccc(CNC(=O)CC(F)(F)F)c1 the result was Mtb cholesterol medium: 1.236%; Mtb glucose medium: 16.47% and -1.871%. For CC(C)(C)OC(=O)N[C@H]1CCN(C(=O)c2cc(Cl)c[nH]2)C1 the result was Mtb cholesterol medium: 8.166%; Mtb glucose medium: 13.64%.

Result for COCC(=O)N1CCC2(CCC2N(C)Cc2ccco2)CC1.O=C(O)C(F)(F)F (centres undefined) was Mtb cholesterol medium: -13.14%; Mtb glucose medium: -9.691%. For O=C(NCc1nncn1C1CC1)C1(c2ccc(F)cc2)CCOCC1 the result was Mtb cholesterol medium: -5.783%; Mtb glucose medium: -21.82%. Result for Cc1cc(C(=O)N2CCC(Nc3cccnn3)CC2)no1 was Mtb cholesterol medium: -14.59%; Mtb glucose medium: -31.48%. Cn1c(=O)c2sccc2n(CC(=O)Nc2cccc(Cl)c2)c1=O gave Mtb cholesterol medium: -38.88%; Mtb glucose medium: -27.13%. Cc1ccn2c(F)c(C(=O)N3CCC4(CCC(=O)N(C)C4)CC3)nc2c1 read Mtb cholesterol medium: 0.4336%; Mtb glucose medium: -3.921%.